Source: PubChem BioAssay AID2685 (National Center for Advancing Translational Sciences (NCATS), 2010)
This is one part of the list. Shown are side measurements of this screen, not its main read-out; they come without a call. Most of these compounds were active or inconclusive in the main read-out, so they are no random draw. Potencies come from curve fits of mixed quality, noted in brackets.

Assay: qHTS Assay for Lipid Storage Modulators in Drosophila S3 Cells;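 for cell number change: cells counted by Cell Tracker Red CMTPX staining in the red channel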
Conditions: BODIPY lipid droplet fluorescence, 18-24 h; for cell number change: measured here: cell count max response, cells fed with added oleic acid
Text: NIH Molecular Libraries Probe Production Centers Network [MLPCN] NIH Chemical Genomics Center [NCGC] MLPCN Grant: 1 R03 MH085686-01 Assay Submitter (PI): Beller, Mathias; Max-Planck-Institut fur Biophysikalische Chemie NCGC Assay Overview: Storing lipids as a reservoir for energy or the anabolism of elementary metabolites is a common feature of probably all cells and is conserved from bacteria to humans. The universal cellular lipid storage organelle is the so-called lipid storage droplet (LD). Although ubiquitous, LDs share a simple structure composed of a hydrophobic core that harbors the storage lipids, which is shielded by a droplet-specific phospholipid monolayer to which proteins are attached. The current model of LD biogenesis involves an incorporation of the lipid core into the membrane leaflets of the endoplasmic reticulum (ER) followed by a subsequent budding-like maturation of a LD, which ultimately pinches off. Once released, LD volume can increase by localized lipogenesis or fusion of existing droplet. Storage lipids are re-mobilized enzymatically by lipase activity. Lipase regulation in the adipocyte is heavily studied and involves multiple components including catecholamine signaling, the LD-associated proteins Perilipin and comparative gene identification (CGI-58) and at least two lipases named hormone sensitive lipase (HSL) and adipocyte triglyceride lipase (ATGL). LD regulation outside of the adipocyte is poorly understood and only few components are known. However, there is an urgent need to learn more about ectopic fat depots as mislocalized storage of lipids, for example in the liver or muscle, is an eminent health problem associated with insulin resistance or the metabolic syndrome. We developed a laser-scanning cytometer assay to enable 1,536-well screening and combined the results of the small molecules screen with an RNAi database based on lipid storage.
Triacsin C (Sigma-Aldrich T-4540), an inhibitor of long-chain fatty acyl CoA synthetase that blocks synthesis of triglycerides, was used as a positive control for lipid under-storage. A total of 23 nL of compound solution of different concentrations were transferred to the assay plates using a Kalypsys pin tool equipped with a 1,536-pin array containing 10-nL slotted pins (FP1S10, 0.457-mm diameter, 50.8 mm long; V&P Scientific). One microliter of oleic acid (400 uM) was added, and the plate was lidded with stainless steel rubber gasket lined lids containing pinholes. […] Fluorescence was detected by excitation of the fluorophores with a 488-nm laser on an Acumen Explorer (TTP Lab Tech). The total intensity in channel 2 (500-530 nm) reflected lipid droplet accumulation. Cells were detected using channel 3 (575-640 nm) with 5-um width and 100-um depth filters. The ratio of the number of objects in PMT channel 2 over the number of objects in PMT channel 3 was also calculated. Percent activity was computed relative to an internal control (100% inhibited lipid droplet deposition due to the presence of 20 uM Triacsin C), which was added to 32 wells/plate.

[1] = measured here: cell number channel AC50, cells fed with added oleic acid
[2] = measured here: lipid fluorescence (Fed channel) AC50, cells fed with added oleic acid

With CCOC(=O)C1CCN(C(=O)/C=C/c2ccccc2)CC1 the AC50 [1] was 0.00517 µM [falling, full curve, poor fit].
Work on COc1ccc(C)cc1S(=O)(=O)Nc1cccc(SC)c1 yielded a cell number change of -18.6%.
With N#CC(C#N)=C1C=C2C=C(N3CCOCC3)CCC2CC1 (stereo unspecified) the cell number change was -96.8%, the AC50 [1] was 9.2 µM [falling, partial curve] and the AC50 [2] was 1.03 µM [falling, full curve].
In the case of O=C(COC(=O)/C=C/c1cccc(Br)c1)NC1CCCCCC1, the cell number change is reported as -31.1%, the AC50 [1] is reported as 0.411 µM [falling, full curve, poor fit] and the AC50 [2] is reported as 0.058 µM [falling, full curve].
With CCC(C)NC(=O)c1ccccc1NC(=O)CN(c1ccc(OC)cc1)S(C)(=O)=O (stereo unspecified) the cell number change was 9.68%, the AC50 [1] was 0.731 µM [falling, single point] and the AC50 [2] was 29.1 µM [rising, single point].
In the case of COc1cc(C(=O)N2CCN(C/C=C/c3ccccc3)CC2)cc(OC)c1C, the cell number change is reported as 6.76% and the AC50 [2] is reported as 2.91 µM [rising, partial curve].
With COc1cccc2cc(C(=O)Nc3ccccc3C(=O)N3CCOCC3)oc12 the cell number change was 12.7% and the AC50 [2] was 16.4 µM [falling, single point].
With O=C(CCN1C(=O)/C(=C/c2cccs2)SC1=S)Nc1ccccn1 the cell number change was 0.588% and the AC50 [2] was 3.66 µM [falling, single point].
In the case of O=C1c2ccccc2C(Nc2ccc(S(=O)(=O)N3CCOCC3)cc2)N1c1ccccn1 (stereo unspecified), the cell number change is reported as -0.506% and the AC50 [2] is reported as 16.4 µM [rising, partial curve, poor fit].
In the case of CCCOc1ccc2c(c1)C(=NN=C(N)N)c1cc(OCCC)ccc1-2, the cell number change is reported as -72%, the AC50 [1] is reported as 11.6 µM [falling, partial curve] and the AC50 [2] is reported as 11.6 µM [falling, partial curve].
In the case of CC[C@H]1CN2CCc3cc(OC)c(OC)cc3C2C[C@@H]1C[C@H]1NCCc2cc(OC)c(OC)cc21 (stereo partly specified), the cell number change is reported as -30%, the AC50 [1] is reported as 32.6 µM [falling, single point] and the AC50 [2] is reported as 18.4 µM [falling, partial curve, poor fit].
For Cn1nc(C(=O)Nc2sccc2C(N)=O)ccc1=O, the cell number change was 1.57%.
In the case of O=C(Cc1ccccc1)NC(=S)Nc1cccc(C(F)(F)F)c1, the cell number change is reported as -66.9% and the AC50 [1] is reported as 25.9 µM [falling, single point].
In the case of Cc1nn(Cc2ccc(Cl)cc2Cl)c(C)c1NC(=O)Cn1nc([N+](=O)[O-])c(Cl)c1C, the cell number change is reported as 6.3% and the AC50 [2] is reported as 0.0517 µM [rising, full curve, poor fit].
With CC(C)Oc1ccc(C(=O)CCN2CCCCC2)cc1 the cell number change was -54%, the AC50 [1] was 14.6 µM [falling, single point] and the AC50 [2] was 16.4 µM [falling, single point].
With O=C(/C=C/NNC(=O)c1cccc(Br)c1)c1ccccc1 the cell number change was 6.72% and the AC50 [2] was 5.17 µM [rising, full curve].
With Nc1cc(C(F)(F)F)ccc1N1CCOCC1 the cell number change was 22.1%, the AC50 [1] was 4.11 µM [rising, single point] and the AC50 [2] was 3.26 µM [rising, single point].
For Nc1ccc(C(=O)c2ccccc2C(=O)O)cc1Cl, the cell number change was -7.85% and the AC50 [2] was 0.146 µM [falling, single point].
With Cc1ccc(CNC(=O)COC(=O)c2nc(-c3ccccc3)oc2C)cc1 the cell number change was -47.1%, the AC50 [1] was 29.1 µM [falling, single point] and the AC50 [2] was 29.1 µM [falling, single point].
In the case of CCOC(=O)c1c(C)oc2c(CC(=O)c3ccccc3)c(Cl)c(O)c(O)c12, the cell number change is reported as -15.5% and the AC50 [2] is reported as 0.206 µM [falling, full curve, poor fit].
For COc1ccccc1NC(=O)CSc1nnc(CC(=O)Nc2ccccc2)n1C, the cell number change was 20.1% and the AC50 [2] was 1.16 µM [rising, full curve, poor fit].
With Cc1cc(C(=O)N2CCN(c3ccc([N+](=O)[O-])cc3)CC2)no1 the cell number change was 9.61% and the AC50 [2] was 29.1 µM [rising, single point].
For COC(=O)[C@H](CC(C)C)NC(=O)NCCCc1ccccc1, the cell number change was 0.544% and the AC50 [2] was 0.00461 µM [falling, full curve, poor fit].
CN(CC(=O)N1CCCCC1)S(=O)(=O)c1ccc(Cl)cc1 gave a cell number change of 4.33%.
With CCc1nn(-c2cc(Cl)ccc2OC)c2c1C(=O)CCC2 the cell number change was -0.533% and the AC50 [2] was 4.11 µM [falling, single point].
Work on Cc1cnc(NC(=O)c2ccc3c(c2)C(=O)N(Cc2ccco2)C3=O)s1 yielded a cell number change of -23.2%.
In the case of COc1cccc(C(=O)Oc2ccc(/C=N/NC(=O)c3ccncc3)cc2OC)c1, the cell number change is reported as -3.85% and the AC50 [2] is reported as 4.11 µM [falling, partial curve, poor fit].
For COC(=O)C1=C(C)N(C)C(=O)NC1c1ccc([N+](=O)[O-])o1 (stereo unspecified), the cell number change was 41.1%, the AC50 [1] was 29.1 µM [rising, single point] and the AC50 [2] was 29.1 µM [rising, single point].
In the case of Cc1cc(C)c(C(=O)NC2CC(C)(C)Cc3c2cnn3-c2ccccc2)o1 (stereo unspecified), the cell number change is reported as 8.96%.
In the case of O=C(CCC1COc2ccccc2O1)Nc1cccnc1 (stereo unspecified), the cell number change is reported as 50.1% and the AC50 [1] is reported as 3.26 µM [rising, partial curve].
In the case of CCc1nccn1S(=O)(=O)c1cc(OC)c(Cl)cc1OC, the cell number change is reported as 13.4%, the AC50 [1] is reported as 0.651 µM [falling, single point] and the AC50 [2] is reported as 0.58 µM [falling, single point].
For Cn1nc(-c2ccc(C(=O)N3CCN(Cc4ccccc4)CC3)cc2)c2ccccc2c1=O, the cell number change was 7.45% and the AC50 [2] was 0.58 µM [falling, single point].
COC(=O)c1c(NC(C)=O)sc(C(=O)N2CCOCC2)c1C showed a cell number change of 18.1%.
For CCn1c(CSc2nc(C)cc(C)n2)nnc1SCC(=O)N1CCCc2ccccc21, the cell number change was 16.7%.
With Cc1ccc(C(C[N+](=O)[O-])c2c(C)cc3ccccn23)cc1 (stereo unspecified) the cell number change was -39.6%, the AC50 [1] was 3.66 µM [rising, single point] and the AC50 [2] was 16.4 µM [falling, partial curve, poor fit].
In the case of N#Cc1cc2cc3c(cc2nc1N1CCCCC1)OCCO3, the cell number change is reported as -25.9% and the AC50 [2] is reported as 0.0259 µM [rising, full curve].
With CN(C)C=Nc1c(C(=O)c2ccccc2)sc2nccc(N(C)C)c12 the cell number change was -12.8% and the AC50 [2] was 29.1 µM [rising, single point].
With O=C(CSc1nnnn1-c1cccc(F)c1)Nc1nc2ccccc2s1 the cell number change was -42.2%, the AC50 [1] was 29.1 µM [falling, single point] and the AC50 [2] was 29.1 µM [falling, single point].
With O=C(OCC(=O)N1CCN(C(=O)c2ccco2)CC1)c1ccccc1C(=O)c1ccc(Cl)cc1 the cell number change was 12.3% and the AC50 [2] was 29.1 µM [rising, single point].
COc1ccccc1/C=C/C=C1\Oc2c(ccc(O)c2CN(C)C)C1=O gave a cell number change of 4.59%.
With CCCOC1CCCN(C(=O)c2cc(Cl)c(Cl)cc2C(=O)O)C1 (stereo unspecified) the cell number change was -3.2%.
In the case of CC(OC(=O)C1CCCC1)C(=O)Nc1ncc(Cl)cc1Cl (stereo unspecified), the cell number change is reported as -6.1% and the AC50 [2] is reported as 0.00461 µM [falling, full curve, poor fit].
In the case of Cc1nc(=S)c2c([nH]1)-c1ccccc1CC21CCCCC1, the cell number change is reported as 35%, the AC50 [1] is reported as 5.8 µM [rising, full curve, poor fit] and the AC50 [2] is reported as 0.116 µM [rising, full curve].
For O=C(COc1ccc(Br)cc1CNC1CCCCC1)NCCc1ccccc1, the cell number change was 23.4%.
In the case of Cn1c(=O)n(C)c2cc(S(=O)(=O)O)ccc21, the cell number change is reported as 0.149% and the AC50 [2] is reported as 3.26 µM [rising, single point].
For O=C(CSc1nc(-c2ccco2)cc(C(F)(F)F)n1)N1CCN(c2ccc(Cl)cc2)CC1, the cell number change was -27.3% and the AC50 [2] was 29.1 µM [falling, single point].
With COCC(=O)Nc1cc(C(=O)OC)cc(C(=O)OC)c1 the cell number change was 23.6% and the AC50 [2] was 13 µM [rising, partial curve, poor fit].
For CSCc1ccc(C(=O)NC2CC(C)(C)Cc3c2cnn3-c2ccc(F)cc2)o1 (stereo unspecified), the AC50 [2] was 0.651 µM [falling, partial curve, poor fit].
In the case of CCOC(=O)c1sc(C)c(C(=O)NCCCN2CCOCC2)c1N, the cell number change is reported as -19.9%, the AC50 [1] is reported as 5.17 µM [falling, single point] and the AC50 [2] is reported as 1.03 µM [falling, full curve].
In the case of COC(=O)CCn1nnc(-c2cccs2)n1, the cell number change is reported as -17.8% and the AC50 [2] is reported as 3.26 µM [falling, full curve, poor fit].
With CCOCCCNC(=O)c1cc2c(=O)n3cccc(C)c3nc2n1C the AC50 [2] was 0.164 µM [rising, full curve, poor fit].
With Cc1nn(-c2ccccc2)c(C)c1N the cell number change was 59.9%, the AC50 [1] was 29.1 µM [rising, single point] and the AC50 [2] was 0.58 µM [rising, single point].
With O=C(CSC1CC(=O)N(CCc2ccccc2)C1=O)Nc1ccc(Br)cc1 (stereo unspecified) the cell number change was -39.2% and the AC50 [2] was 0.206 µM [falling, full curve, poor fit].
With Cc1ccc(NC(=O)NCc2ccc3c(c2)OCO3)cc1 the cell number change was 33.9%, the AC50 [1] was 0.651 µM [rising, full curve, poor fit] and the AC50 [2] was 8.2 µM [rising, partial curve].
For COCCNC(=O)CCCCCN1C(=O)CCC1=O, the cell number change was -90%, the AC50 [1] was 29.1 µM [falling, single point] and the AC50 [2] was 29.1 µM [falling, single point].
With OCCC1CN(C/C=C/c2ccco2)CCN1Cc1ccccc1 (stereo unspecified) the cell number change was 14.2% and the AC50 [2] was 29.1 µM [falling, single point].
In the case of O=C(C[n+]1cc(Br)cc2ccccc21)c1ccccc1, the cell number change is reported as -20.9% and the AC50 [1] is reported as 0.259 µM [falling, full curve, poor fit].
With COC(=O)C(Cc1ccccc1)NC(=O)CCNC(=O)c1ccco1 (stereo unspecified) the cell number change was -1.35%.
In the case of O=C(/C=C/c1ccc(F)cc1)c1ccc(N2CCOCC2)cc1, the cell number change is reported as 0.661% and the AC50 [2] is reported as 2.06 µM [rising, full curve, poor fit].
